# Results: PubChem BioAssay AID493014 (National Center for Advancing Translational Sciences (NCATS), 2011)
# The whole screen tested about 340,000 compounds, of which about 170 (0.05%) were called active. Inconclusive results, whose numbers are uncertain, are shown with a selection of clear calls. The call rests on the fitted dose curve; in most records, active means well fitted inhibition curve with a large enough effect in the signal ratio, with a control signal flat (not every such curve was filed as active); inconclusive means small, poorly fitted or top-dose-only effect, or effect the other way, or a change in a side signal; inactive means flat fitted curve, though single readings scatter; the % refers to the signal ratio. Potencies beside an inconclusive call are fits to weak or partial responses and may not hold up.
# Test: qHTS Assay to Find Inhibitors of Chronic Active B-Cell Receptor Signaling;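 on activity change, negative = inhibition: plate controls were basal doxycycline-induced cells for no effect and cells given 10 µM MG132 for full effect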
# Details: ABC-DLBCL IkBa-CBG/CBR reporter, luminescence ratio (green luciferase fused to IkBa over red control in TMD8 lymphoma cells), 4 h; activity change, negative = inhibition: at 46.1 µM (top of the series) unless noted
# Method in brief: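 TMD8 ABC-DLBCL cells carrying doxycycline-inducible green luciferase fused to IkappaBalpha plus unfused red luciferase were exposed to compounds (up to 46 uM) for 4 hrs at 37C. Activity came from the overlap-corrected green/red luminescence ratio.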
# Potency means the concentration at half of the fitted maximal effect.
SMILES,"activity change, negative = inhibition",Potency
Cc1ccc(C(=O)NC(=S)Nc2ccc(N3CCOCC3)cc2)c(C)c1,inactive: 0.117%,
COc1ccc(C/C(O)=C(\C#N)c2nc3ccccc3s2)cc1,inconclusive: 7.15%,
NCCNC(=O)c1c(O)c2cccc3c2n(c1=O)CCC3,,"inconclusive: 25.1 µM [falling, single point]"
O=C(CCC(=O)OCC(F)(F)C(F)F)Nc1ccc(Cl)cc1,inactive: -2.96%,
N/C(Cn1cncn1)=N\OC(=O)c1ccc(Cl)cc1Cl,inconclusive: 3.64%,
CC(=O)c1c(C)[nH]c(C(=O)Nc2cccc(S(=O)(=O)N3CCCC3)c2)c1C,,"inconclusive: 23.1 µM [falling, single point]"
CCOC(=O)c1c(NC(=O)c2c(-c3ccccc3)noc2C)sc(C)c1-c1ccccc1,inactive: 9.12%,
O=C(/C=C/c1ccco1)c1ccc(O)cc1,,"inconclusive: 7.08 µM [activator, partial curve]"
Cc1nn(-c2ccccc2)c(Cl)c1/C=N/NC(=O)c1ccc(NS(=O)(=O)c2cccs2)cc1,,"inconclusive: 22.4 µM [falling, partial curve]"
O=[N+]([O-])c1cnc2nc(-c3ccncc3)nn2c1O,,"inconclusive: 35.5 µM [rising, single point]"
CS(=O)(=O)N1CCN(c2ccccc2NC(=O)Nc2cccc(Cl)c2)CC1,inconclusive: -23.8%,
CC(C)CNC(=O)C(=O)NCC1OCCCN1S(=O)(=O)c1ccc2c(c1)OCCO2 (centres undefined),inconclusive: 5.55%,
Cc1ccccc1N(CC(=O)NC1CCCC1)C(=O)c1csnn1,inactive: 1.37%,
CN(c1ccccc1)S(=O)(=O)c1ccc(C(=O)Nc2nnc(C3=COCCO3)o2)cc1,inconclusive: -15.6%,
Nc1nc2ccccc2n1Cc1ccc(Cl)c(Cl)c1,inactive: -1.03%,
Clc1ccc2[nH]cc(-c3nnnn3-c3ccccc3)c2c1,inactive: -19.7%,
CCC(C)Sc1cc(C(F)(F)F)c(C(=O)Nc2ccc(Cl)cc2)cn1 (centres undefined),inconclusive: -15.2%,
COc1ccc(OC2C(=O)N(Cc3ccc(F)cc3)C2c2cc(OC)c(OC)c(OC)c2)cc1 (centres undefined),inactive: 15.8%,
CCOC(=O)C1CCCN(C/C(O)=C(\C#N)c2nc(-c3ccc(Cl)cc3)cs2)C1 (centres undefined),,"inconclusive: 3.66 µM [rising, partial curve, poor fit]"
CC(C)CN(/C=N/c1sc2c(c1C#N)CCCCC2)CC(C)C,inconclusive: 22.2%,
C=CCn1c(-c2ccccc2)c[nH]c1=S,,"inconclusive: 23.1 µM [cytotoxic, single point]"
O=C(CSc1nnc(CNC(=O)c2c(F)cccc2Cl)o1)Nc1ccccc1,inconclusive: 3.46%,
Nc1c(-c2cccc(Cl)c2)cnn1-c1cccc(C(F)(F)F)c1,inconclusive: -0.29%,
COc1ccc(OC)c(CNc2sc3c(c2C(=O)Nc2cc(OC)ccc2OC)CCCC3)c1,inconclusive: -0.947%,
N#C/C(=C\c1c[nH]c2ccccc12)C(=O)NC1CC1,,"inconclusive: 22.4 µM [falling, partial curve]"
COc1cc(/C=N/NC(=O)c2sc3nc(C)cc(C)c3c2N)ccc1O,,"inconclusive: 2.82 µM [falling, partial curve, poor fit]"
Oc1[nH]c2ccccc2c1C=Nc1ccc2c(c1)OCO2,,"inconclusive: 6.51 µM [falling, partial curve, poor fit]"

# 4 structures out of the list, ordered by molar mass, descending.
SMILES,"activity change, negative = inhibition",Potency
O=C(CSc1nnc(CNC(=O)c2c(F)cccc2Cl)o1)Nc1ccccc1,inconclusive: 3.46%,
CC(=O)c1c(C)[nH]c(C(=O)Nc2cccc(S(=O)(=O)N3CCCC3)c2)c1C,,"inconclusive: 23.1 µM [falling, single point]"
CC(C)CN(/C=N/c1sc2c(c1C#N)CCCCC2)CC(C)C,inconclusive: 22.2%,
N#C/C(=C\c1c[nH]c2ccccc12)C(=O)NC1CC1,,"inconclusive: 22.4 µM [falling, partial curve]"

# (listing goes on)

SMILES,"activity change, negative = inhibition",Potency
CC(=O)Nc1ccc(Nc2nnc(-c3ccc(C)c(S(N)(=O)=O)c3)c3ccccc23)cc1,inactive: 5.74%,
Cc1cccc(C)c1NC(=O)CSCCO,inconclusive: 4.81%,
CC(C)Cc1nnc(NC(=O)CC(C)c2ccccc2)s1 (centres undefined),inconclusive: 12.6%,
CC1CN(C(=O)c2ccc(Oc3ccccc3)cc2)CC(C)O1 (centres undefined),inconclusive: -25.5%,
COc1ccc(C)c(-n2c(N)cc(=O)n(Cc3ccccc3)c2=O)c1,,"inconclusive: 25.1 µM [falling, single point]"
O=C1Nc2cc(C(=O)N3CCN(c4ccccc4F)CC3)ccc2NC1CSCc1ccccc1F (centres undefined),inactive: 1.38%,
CC(=O)NC(Cc1c[nH]c2ccccc12)C(=O)OCC(=O)N1CCCCCC1 (centres undefined),inconclusive: 9.94%,
CCOc1ccccc1-n1nnnc1SCC(=O)NC(=O)Nc1ccc2c(c1)OCCO2,,"inconclusive: 29.1 µM [falling, single point]"
COc1ccccc1NC(=O)CN1CC(=O)Nc2ccccc21,inactive: -1.37%,
Cc1ccc(N=Nc2c(O)ccc3n[nH]nc23)cc1,,"inconclusive: 0.398 µM [rising, full curve]"
CC1(C)C(=S)N(Cc2ccccc2)c2ccccc21,inconclusive: 2.67%,
CCOC(=O)c1ccc(CN(Cc2ccc(C)cc2)S(=O)(=O)c2ccc(NC(C)=O)cc2)cc1,,"inconclusive: 4.47 µM [falling, single point]"
COc1cc(NC(=O)c2cc(-c3ccccc3)on2)cc(OC)c1OC,,"inconclusive: 11.2 µM [falling, partial curve, poor fit]"
CCC1(CC)N=C(c2ccccc2)C(=S)N1,,"inconclusive: 35.5 µM [falling, single point]"
CCOC(=O)Cc1csc(NC(=O)c2cc(C)c(C)s2)n1,,"inconclusive: 20.6 µM [falling, single point]"
COc1ccc(C)cc1NC(=O)Cn1c(=O)oc2cc(S(=O)(=O)NCc3ccccc3)ccc21,inactive: 0.12%,
CCC(=O)N1CCc2cc(Br)cc(S(=O)(=O)NCC3CCCN3CC)c21 (centres undefined),inconclusive: 1.33%,
O=c1c2ccccc2sc2nc(C3CCCCC3)n(Cc3ccco3)c(=O)c12,inconclusive: -19%,
CCOC(=O)C1=C(C)C/C(=N\NC(=O)c2ccccc2O)CC1,,"inconclusive: 6.31 µM [rising, single point]"
CC(C)(C)OC(=O)C[C@@H]1C/C=C\C[C@@H](CC(=O)N(CCO)Cc2ccccc2)C(=O)NC[C@H](c2ccccc2)OC1=O,inactive: -0.965%,
CCCCOC(=O)c1sc2nc(C)cc(C)c2c1N,inconclusive: 19.7%,
O=C(CN1C(=O)NC2(CCCC2)C1=O)Nc1ccc(F)cc1,,"inconclusive: 23.1 µM [rising, single point]"
COc1ccc(S(=O)(=O)N(CCc2ccccc2)CC(=O)O)cc1Cl,inconclusive: -0.25%,
CCOc1ccc(NC(=O)/C(C#N)=C/c2ccc(N3CCCC3)c(C)c2)cc1,inconclusive: 5.47%,
Cc1ccc(NC(=O)c2cncc(Br)c2)nc1,inconclusive: -1.87%,
O=C(CCCNc1ccccc1)N/N=C/c1cccs1,,"inconclusive: 20 µM [falling, single point]"
Cc1ccc(N2CCN(C(=S)c3ccc(-c4ccccc4[N+](=O)[O-])o3)CC2)cc1,inconclusive: -1.83%,

# Reprinted from the listing for reference:
SMILES,"activity change, negative = inhibition",Potency
CCOc1ccc(NC(=O)/C(C#N)=C/c2ccc(N3CCCC3)c(C)c2)cc1,inconclusive: 5.47%,
Cc1ccc(NC(=O)c2cncc(Br)c2)nc1,inconclusive: -1.87%,

# The list goes on:

SMILES,"activity change, negative = inhibition",Potency
CCn1c(=O)cc(OCC(=O)NCCCN2CC(C)CC(C)C2)c2ccccc21 (centres undefined),,"inconclusive: 20.6 µM [falling, partial curve, poor fit]"
COc1cc(C(=O)N[C@H](C(=O)NC2CCCc3ccccc32)C(C)C)cc(OC)c1OC (some centres undefined),inconclusive: -2%,
COC(=O)c1ccccc1NC(=O)CN1CCC(NC(=O)c2ccccc2C)CC1,inconclusive: -1%,
COc1cc(NC(=O)COC(=O)CNC(=O)C2CCCCC2)cc(OC)c1,inconclusive: 0.425%,
CCCCOC1(c2ccccc2)NC(=S)NN=C1c1ccccc1 (centres undefined),inactive: 6.66%,
Cc1nnc(NC(=O)CSc2nnc(CCc3nc4ccccc4[nH]3)n2C)s1,inconclusive: 2.74%,
CSc1ccc(C2N=C(c3ccccc3)NO2)cc1 (centres undefined),,"inconclusive: 35.5 µM [falling, single point]"
COc1ccc(-n2c(SC(CN3CCCCC3)CN3CCCC3=O)nc3ccccc3c2=O)cc1 (centres undefined),inconclusive: -23.9%,
O=C(CN1c2cccc3cccc(c23)S1(=O)=O)N1CCOCC1,inconclusive: 1.28%,
O=C(O)c1ccc2ncsc2c1,,"inconclusive: 20 µM [falling, partial curve]"
Cc1cc(C)c(C(=O)OCC(=O)NCc2cccs2)c(C)c1,,"inconclusive: 25.1 µM [falling, single point]"
CC(C)c1ccc(NC(=O)C2=CC=CN3CCS(=O)(=O)N=C23)cc1,inconclusive: 0.0267%,
Cc1ccc(NC(=O)c2oc3ccc(S(=O)(=O)N4CCC5(CC4)OCCO5)cc3c2C)c(C)c1,inactive: -5.25%,
O=C(NCc1ccc2c(c1)CCN2C(=O)c1ccccc1)c1ccco1,inactive: 12.4%,
O=C(CSc1nnc(CNC(=O)c2ccco2)o1)Nc1nc2ccccc2s1,,"inconclusive: 35.5 µM [cytotoxic, single point]"
O=C1CCN(S(=O)(=O)c2cc(C(F)(F)F)ccc2Cl)CC1,inconclusive: -12%,
CC(C)C[C@H](NC(=O)c1nc[nH]c1C(=O)NCCNC(=O)OC(C)(C)C)C(=O)CNCCNC(=O)c1[nH]cnc1C(=O)N[C@@H](C)C(=O)OC(C)(C)C,inconclusive: -1.69%,
COc1ccc(CNC(=O)Nc2cc(C)cc(C)c2)cc1,inconclusive: -9.99%,
Cc1ccc(S(=O)(=O)N(C)c2ccc(OCC(=O)Nc3ccc(C(=O)N(C)C)cc3)cc2)cc1C,inactive: 5.52%,
Cc1cccc2c(N=Nc3ccccc3)c(O)[nH]c12,inactive: 9.83%,
O=C(NCC1CCCO1)c1ccccc1-c1nc(-c2ccccc2Cl)no1 (centres undefined),inconclusive: -20.3%,
Nc1ccc(S(=O)(=O)Nc2ccc(S(N)(=O)=O)cc2)cc1,inconclusive: -0.884%,
O=C(NC(=S)Nc1ccccc1C(F)(F)F)c1ccccc1F,inactive: -10%,
Cc1ccc(S(=O)(=O)c2ccc(Oc3ccccc3)cc2)cc1,inconclusive: -0.522%,
O=C(CSc1nnnn1-c1ccccc1)Nc1ncc2c(n1)CC(c1ccco1)CC2=O (centres undefined),inconclusive: -3.54%,
